Measured values published in publication PMC4287435.
Results are given in words; binding and its absence hold for the method and conditions named. Some entries that bind do so weakly or less than the wild type. Tags and fused reporters may be left off the sequences shown.

What was measured:
[1] = target: T1, His-tagged ROS1 (His-ROS1) (Arabidopsis) (UniProt Q9SJQ6); assay: native gel or EMSA; labelled 1-nt gapped DNA duplex (10 nM) with ROS1 (75 nM) and MBP-APE1L (0-1000 nM), 15 min at 25°C, 10 mM Tris HCl pH 8.0, 1 mM DTT, 10 µg/ml BSA; 0.2% agarose gel; ternary complex with DNA; supershift with anti-MBP; both purified
T1 sequence: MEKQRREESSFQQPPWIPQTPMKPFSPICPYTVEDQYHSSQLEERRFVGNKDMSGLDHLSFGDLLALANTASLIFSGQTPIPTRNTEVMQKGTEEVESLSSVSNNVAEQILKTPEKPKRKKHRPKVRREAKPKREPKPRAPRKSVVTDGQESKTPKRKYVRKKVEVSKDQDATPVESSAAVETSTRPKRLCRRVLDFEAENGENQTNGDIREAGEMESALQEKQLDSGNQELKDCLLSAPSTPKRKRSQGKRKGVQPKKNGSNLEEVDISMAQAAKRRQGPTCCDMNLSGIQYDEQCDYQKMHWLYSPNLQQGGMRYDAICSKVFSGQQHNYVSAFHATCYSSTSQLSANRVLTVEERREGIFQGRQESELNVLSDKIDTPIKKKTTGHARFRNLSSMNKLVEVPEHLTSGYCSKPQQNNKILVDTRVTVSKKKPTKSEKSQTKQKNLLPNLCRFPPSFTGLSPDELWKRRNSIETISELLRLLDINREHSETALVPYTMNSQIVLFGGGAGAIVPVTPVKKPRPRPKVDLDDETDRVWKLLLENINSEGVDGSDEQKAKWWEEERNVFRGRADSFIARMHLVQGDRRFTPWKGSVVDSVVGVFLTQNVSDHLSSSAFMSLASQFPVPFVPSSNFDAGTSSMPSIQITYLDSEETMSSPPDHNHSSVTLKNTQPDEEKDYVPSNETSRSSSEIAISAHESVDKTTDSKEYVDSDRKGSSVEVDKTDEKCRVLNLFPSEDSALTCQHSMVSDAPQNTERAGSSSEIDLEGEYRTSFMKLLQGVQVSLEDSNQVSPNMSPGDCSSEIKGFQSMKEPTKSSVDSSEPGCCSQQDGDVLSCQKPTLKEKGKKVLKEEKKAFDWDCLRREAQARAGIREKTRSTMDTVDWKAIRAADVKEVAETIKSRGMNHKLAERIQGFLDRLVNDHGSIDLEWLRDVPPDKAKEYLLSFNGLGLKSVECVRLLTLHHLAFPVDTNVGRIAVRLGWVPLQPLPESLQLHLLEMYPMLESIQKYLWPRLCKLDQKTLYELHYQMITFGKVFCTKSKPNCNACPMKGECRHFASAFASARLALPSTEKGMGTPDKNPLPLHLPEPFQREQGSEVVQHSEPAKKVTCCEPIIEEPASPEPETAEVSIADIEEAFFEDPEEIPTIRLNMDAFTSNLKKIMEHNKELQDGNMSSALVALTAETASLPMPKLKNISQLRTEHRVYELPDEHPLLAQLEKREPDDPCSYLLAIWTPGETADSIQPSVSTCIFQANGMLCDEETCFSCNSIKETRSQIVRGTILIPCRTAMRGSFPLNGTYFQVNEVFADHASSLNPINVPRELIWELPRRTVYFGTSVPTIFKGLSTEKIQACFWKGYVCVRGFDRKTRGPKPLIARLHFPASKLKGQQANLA

MBP-ROS1 (Arabidopsis) = target: T2, MBP-ROS1 (Arabidopsis) (UniProt Q9SJQ6); assay: as above
T2 sequence: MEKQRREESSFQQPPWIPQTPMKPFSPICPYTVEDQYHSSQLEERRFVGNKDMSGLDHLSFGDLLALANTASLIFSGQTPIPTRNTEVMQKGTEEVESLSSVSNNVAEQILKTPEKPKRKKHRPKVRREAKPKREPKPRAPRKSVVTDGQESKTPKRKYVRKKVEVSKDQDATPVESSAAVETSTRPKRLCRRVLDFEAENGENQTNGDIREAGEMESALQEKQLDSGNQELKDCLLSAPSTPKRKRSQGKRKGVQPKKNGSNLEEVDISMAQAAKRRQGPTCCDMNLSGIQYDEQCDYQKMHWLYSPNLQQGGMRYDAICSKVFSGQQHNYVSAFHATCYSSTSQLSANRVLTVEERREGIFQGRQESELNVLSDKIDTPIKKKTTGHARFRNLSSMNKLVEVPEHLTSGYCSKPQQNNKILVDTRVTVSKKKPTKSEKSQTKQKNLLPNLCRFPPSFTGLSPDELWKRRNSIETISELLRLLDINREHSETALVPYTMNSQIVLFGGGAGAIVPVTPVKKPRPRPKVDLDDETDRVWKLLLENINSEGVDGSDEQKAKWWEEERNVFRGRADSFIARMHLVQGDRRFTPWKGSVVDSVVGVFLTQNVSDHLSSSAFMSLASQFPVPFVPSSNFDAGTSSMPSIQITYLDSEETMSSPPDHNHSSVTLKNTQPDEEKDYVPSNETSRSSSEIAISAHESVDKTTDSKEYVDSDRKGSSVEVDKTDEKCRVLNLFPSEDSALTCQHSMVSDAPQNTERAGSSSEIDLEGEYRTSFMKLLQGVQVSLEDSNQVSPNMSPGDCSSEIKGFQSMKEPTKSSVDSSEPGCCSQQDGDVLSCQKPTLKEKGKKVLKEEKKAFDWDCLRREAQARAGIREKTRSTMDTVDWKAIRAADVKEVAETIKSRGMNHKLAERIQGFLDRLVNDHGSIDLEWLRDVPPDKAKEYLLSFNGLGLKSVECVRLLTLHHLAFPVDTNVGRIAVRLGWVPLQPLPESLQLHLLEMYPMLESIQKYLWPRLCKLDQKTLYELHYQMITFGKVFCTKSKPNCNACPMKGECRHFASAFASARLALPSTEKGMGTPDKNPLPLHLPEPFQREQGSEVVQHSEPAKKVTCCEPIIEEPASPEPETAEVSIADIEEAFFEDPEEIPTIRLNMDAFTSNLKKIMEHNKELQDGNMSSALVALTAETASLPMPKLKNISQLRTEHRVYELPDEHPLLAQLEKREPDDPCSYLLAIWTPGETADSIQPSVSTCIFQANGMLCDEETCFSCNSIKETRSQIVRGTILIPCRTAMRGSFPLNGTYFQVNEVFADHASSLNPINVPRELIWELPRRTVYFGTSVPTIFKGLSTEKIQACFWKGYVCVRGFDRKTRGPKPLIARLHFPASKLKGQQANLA

binding [1]: binds
binding (MBP-ROS1 (Arabidopsis)): binds
B1: MBP-APE1L fusion protein (Arabidopsis APE1L, full length) (enzyme, UniProt Q5XF07 1-364)
chain: MKRFFKPIEKENSPAAKKPCLSPEKRDGDGDGVEEEKNQNEPSKFMTWNANSFLLRVKNDWSQFSKFVSDFDPDVIAIQEVRMPAAGGKGKPKNHEELSDDTKVLREEKQILTRALSSPPFGNYGVWWSLADSKYAGTALLVKKCFKPRKVYFNLDKLASKHEPDGRVILAEFETFRLLNTYSPNNGWKDEENAFQRRRKWDKRIVEFLNKTSDKPLIWCGDLNVSHEEIDVSHPEFFATAKLNGYVPPNKEDCGQPGFTPSERGRFGATIKEGRLVDAYRYLHKEQEMESGFSWSGNPIGKYRGKRMRIDYFLVSEQLKDRIVSCKMHGRGIELEGFHGSDHCPVTLELSKPSSEMEQNQVSN
